# Assay results reported in publication PMC8913686.
# Sequences of proteins named here, by UniProt entry; tags and fusion partners are left off. Residues count along the entry.
# UniProt Q04721, residues 26-2471: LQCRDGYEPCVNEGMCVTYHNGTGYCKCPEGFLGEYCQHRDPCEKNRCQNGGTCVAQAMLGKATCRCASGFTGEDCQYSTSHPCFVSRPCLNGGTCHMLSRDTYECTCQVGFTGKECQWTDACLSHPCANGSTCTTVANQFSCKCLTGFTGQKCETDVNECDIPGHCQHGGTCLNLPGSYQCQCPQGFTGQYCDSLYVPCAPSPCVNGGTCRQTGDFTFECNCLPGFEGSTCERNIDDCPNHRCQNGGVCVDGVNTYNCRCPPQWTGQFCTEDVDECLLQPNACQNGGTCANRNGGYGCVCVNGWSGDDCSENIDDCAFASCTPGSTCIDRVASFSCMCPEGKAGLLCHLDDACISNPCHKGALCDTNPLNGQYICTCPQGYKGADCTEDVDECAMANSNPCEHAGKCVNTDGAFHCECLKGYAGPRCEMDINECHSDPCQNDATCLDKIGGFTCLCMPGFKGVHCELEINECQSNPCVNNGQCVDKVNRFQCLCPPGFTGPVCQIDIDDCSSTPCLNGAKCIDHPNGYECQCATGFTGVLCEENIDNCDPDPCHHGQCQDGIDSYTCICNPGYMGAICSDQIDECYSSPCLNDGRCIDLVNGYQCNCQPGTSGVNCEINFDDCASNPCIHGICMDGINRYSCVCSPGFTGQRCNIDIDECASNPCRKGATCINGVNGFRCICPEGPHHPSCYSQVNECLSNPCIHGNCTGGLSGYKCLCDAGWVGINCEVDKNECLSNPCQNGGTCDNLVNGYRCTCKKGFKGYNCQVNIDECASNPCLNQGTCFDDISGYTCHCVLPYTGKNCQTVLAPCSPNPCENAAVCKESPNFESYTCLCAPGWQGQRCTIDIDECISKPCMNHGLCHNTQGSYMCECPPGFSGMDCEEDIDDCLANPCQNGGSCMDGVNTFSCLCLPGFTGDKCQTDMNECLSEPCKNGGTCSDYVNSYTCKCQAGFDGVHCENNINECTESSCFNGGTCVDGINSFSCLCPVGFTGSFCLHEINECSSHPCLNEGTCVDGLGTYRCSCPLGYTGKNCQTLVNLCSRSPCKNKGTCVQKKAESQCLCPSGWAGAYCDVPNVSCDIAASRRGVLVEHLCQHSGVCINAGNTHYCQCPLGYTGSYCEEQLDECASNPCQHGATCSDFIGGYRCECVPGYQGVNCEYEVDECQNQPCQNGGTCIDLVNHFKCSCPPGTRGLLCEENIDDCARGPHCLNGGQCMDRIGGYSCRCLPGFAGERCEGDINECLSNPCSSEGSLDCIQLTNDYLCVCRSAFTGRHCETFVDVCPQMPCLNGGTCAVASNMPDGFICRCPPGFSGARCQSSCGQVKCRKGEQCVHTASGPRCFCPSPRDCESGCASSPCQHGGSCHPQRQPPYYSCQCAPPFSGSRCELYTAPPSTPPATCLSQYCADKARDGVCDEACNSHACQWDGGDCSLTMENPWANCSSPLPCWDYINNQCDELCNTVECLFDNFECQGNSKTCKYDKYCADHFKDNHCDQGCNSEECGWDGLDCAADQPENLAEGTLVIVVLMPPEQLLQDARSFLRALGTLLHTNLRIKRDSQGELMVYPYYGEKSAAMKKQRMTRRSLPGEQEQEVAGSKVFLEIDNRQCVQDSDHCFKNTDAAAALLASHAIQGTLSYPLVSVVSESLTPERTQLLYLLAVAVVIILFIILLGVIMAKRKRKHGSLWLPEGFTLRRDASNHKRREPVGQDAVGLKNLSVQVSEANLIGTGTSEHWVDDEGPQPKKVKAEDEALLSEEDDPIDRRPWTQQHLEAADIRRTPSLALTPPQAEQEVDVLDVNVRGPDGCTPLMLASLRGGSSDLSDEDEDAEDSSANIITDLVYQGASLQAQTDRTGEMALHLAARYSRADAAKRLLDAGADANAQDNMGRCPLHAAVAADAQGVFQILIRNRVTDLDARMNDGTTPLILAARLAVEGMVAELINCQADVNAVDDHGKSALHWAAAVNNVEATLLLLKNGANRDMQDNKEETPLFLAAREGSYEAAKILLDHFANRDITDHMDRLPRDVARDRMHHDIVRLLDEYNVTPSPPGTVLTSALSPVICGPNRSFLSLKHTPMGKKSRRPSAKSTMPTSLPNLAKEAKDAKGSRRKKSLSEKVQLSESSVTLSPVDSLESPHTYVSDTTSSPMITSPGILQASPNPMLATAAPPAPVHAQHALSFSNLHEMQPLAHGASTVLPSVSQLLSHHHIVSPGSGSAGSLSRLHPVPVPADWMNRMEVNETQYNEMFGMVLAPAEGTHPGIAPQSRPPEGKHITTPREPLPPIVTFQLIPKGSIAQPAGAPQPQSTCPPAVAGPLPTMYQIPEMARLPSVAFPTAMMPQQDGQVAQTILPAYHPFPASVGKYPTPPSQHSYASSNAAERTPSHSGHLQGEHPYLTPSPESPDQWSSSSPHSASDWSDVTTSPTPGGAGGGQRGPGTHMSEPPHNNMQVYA
# Molecular target: T1, Flag-tagged Kir2.1 (inwardly-rectifying potassium channel J2) (human) (UniProt P63252)
# T1 sequence: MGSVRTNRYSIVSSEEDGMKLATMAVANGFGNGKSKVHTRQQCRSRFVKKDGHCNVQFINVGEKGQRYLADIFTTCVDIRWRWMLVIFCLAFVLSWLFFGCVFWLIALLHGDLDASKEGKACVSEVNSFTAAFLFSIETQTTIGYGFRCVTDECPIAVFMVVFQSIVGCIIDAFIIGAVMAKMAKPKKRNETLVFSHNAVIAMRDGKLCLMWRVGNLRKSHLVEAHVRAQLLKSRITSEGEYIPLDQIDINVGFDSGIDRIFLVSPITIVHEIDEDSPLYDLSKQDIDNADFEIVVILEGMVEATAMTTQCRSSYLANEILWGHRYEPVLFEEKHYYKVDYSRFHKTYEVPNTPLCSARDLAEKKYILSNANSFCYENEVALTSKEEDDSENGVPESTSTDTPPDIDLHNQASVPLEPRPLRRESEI
# Assay: affinity purification with mass spectrometry; 10 ug anti-Flag antibody (IgG as control) immobilised on AminoLink Plus coupling resin; 250 ug MB cell lysate, 4 °C overnight; eluate analysed by mass spectrometry
substance,measurement,value
Notch2-full length (from UniProt Q04721 26-2471) (receptor),binding,binds

# No constants are given. Whether binding was seen depends on the method and setting. Binding seen in cells or lysates may run through a third protein. Here binding means that the protein was enriched with, or labelled near, the bait; the list need not be complete. Where a sequence is shown, tags or fusion partners need not be part of it.
